Assay results: PubChem BioAssay (NCATS)
Inconclusive means that the source gave no clear call. Such entries were picked first, then a sample of the others. Where the call is inconclusive, the potency comes from a doubtful curve fit. Active and inactive are the calls of the source. Calls come from the whole dose curve; as a rule, active = well fitted curve in the direction sought with a large enough effect; inconclusive = small, poorly fitted or top-dose-only effect, or another doubt; inactive = no such curve, though single readings can be large; an effect the other way counts as inactive or inconclusive.

Legend:
[1] = Quantitative High-Throughput drug screen in 47 multiple myeloma cell lines against the NCATS MIPE library collection: JIM1_ECACC cell viability assay (AID 1918964); settings: JIM1 myeloma viability, CellTiter-Glo ATP luminescence, 48 h; viability (% of DMSO): at 45.8 µM (top of the series)
Procedure, shortened: (§1)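 Myeloma cell lines, 500 cells per well, exposed to MIPE 4.0 library compounds for 48 h at 37C, 5% CO2. Viability from ATP by CellTiter-Glo luminescence; normalised to DMSO (100%) and media-only (0%) wells.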

[2] = Quantitative High-Throughput drug screen in 47 multiple myeloma cell lines against the NCATS MIPE library collection: INA6_PLB cell viability assay (AID 1918965; note: nearly all actives have a fitted effect of over 55% in size); settings: INA6 myeloma viability, CellTiter-Glo ATP luminescence, 48 h; viability (% of control): at 45.8 µM (top of the series)
Procedure, shortened: as §1

[3] = Quantitative High-Throughput drug screen in 47 multiple myeloma cell lines against the NCATS MIPE library collection: JJN3_DSMZ cell viability assay (AID 1918966; note: nearly all actives have a fitted effect of over 50% in size); settings: JJN3 myeloma cells viability, CellTiter-Glo ATP, 48 h; series mostly up to 45.8 µM
Procedure, shortened: as §1

[4] = Quantitative High-Throughput drug screen in 47 multiple myeloma cell lines against the NCATS MIPE library collection: Karpas25_ECACC cell viability assay (AID 1918968; note: nearly all actives have a fitted effect of over 35% in size); settings: Karpas25 myeloma viability, CellTiter-Glo ATP, 48 h; viability (% of control): at 45.8 µM (top of the series)
Procedure, shortened: as §1

[5] = Quantitative High-Throughput drug screen in 47 multiple myeloma cell lines against the NCATS MIPE library collection: KMS27_JCRB cell viability assay (AID 1918970); settings: KMS27 myeloma cells, CellTiter-Glo ATP viability, 48 h; viability (% of DMSO): at 45.8 µM (top of the series); note: nearly all actives have a fitted effect of over 30% in size
Procedure, shortened: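 Myeloma cells (500 per well) were exposed to MIPE 4.0 compounds for 48 h at 37 °C, 5% CO2; viability was read as ATP luminescence with CellTiter-Glo, normalized to DMSO-only (100%) and media-only (0%) wells.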

[6] = Quantitative High-Throughput drug screen in 47 multiple myeloma cell lines against the NCATS MIPE library collection: KMS12BM_JCRB cell viability assay (AID 1918971); note: nearly all actives have a fitted effect of over 35% in size
Procedure, shortened: (§2)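 qHTS of the MIPE 4.0 collection: 500 myeloma cells/well, 48 h drug exposure at 37C in 5% CO2, then CellTiter-Glo for 5 min at room temperature before luminescence reading.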

[7] = Quantitative High-Throughput drug screen in 47 multiple myeloma cell lines against the NCATS MIPE library collection: KMS20_JCRB cell viability assay (AID 1918973); settings: CellTiter-Glo ATP, 48 h; viability (% of DMSO): at 45.8 µM (top of the series); note: nearly all actives have a fitted effect of over 45% in size
Procedure, shortened: as §1

[8] = Quantitative High-Throughput drug screen in 47 multiple myeloma cell lines against the NCATS MIPE library collection: KMS21BM_JCRB cell viability assay (AID 1918974); settings: ATP luminescence, 48 h; viability: at 45.8 µM (top of the series) unless noted
Procedure, shortened: as §1

[9] = Quantitative High-Throughput drug screen in 47 multiple myeloma cell lines against the NCATS MIPE library collection: KMS26_JCRB cell viability assay (AID 1918975); settings: KMS26 myeloma cells viability, CellTiter-Glo ATP, 48 h; viability (% of DMSO): at 45.8 µM (top of the series); note: nearly all actives have a fitted effect of over 45% in size
Procedure, shortened: as §2

[10] = Quantitative High-Throughput drug screen in 47 multiple myeloma cell lines against the NCATS MIPE library collection: MMM1_PLB cell viability assay (AID 1918976); note: nearly all actives have a fitted effect of over 35% in size
Procedure, shortened: (§3)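 500 cells/well per myeloma line exposed to pinned MIPE 4.0 compounds for 48 h at 37 °C, 5% CO2. Viability read as ATP by CellTiter-Glo luminescence, normalised to DMSO-only (100%) and media-only (0%) wells.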

[11] = Quantitative High-Throughput drug screen in 47 multiple myeloma cell lines against the NCATS MIPE library collection: MOLP8_DSMZ cell viability assay (AID 1918977); settings: MOLP8 myeloma viability, CellTiter-Glo ATP luminescence, 48 h; viability (% of control): at 45.8 µM (top of the series); note: nearly all actives have a fitted effect of over 45% in size
Procedure, shortened: as §3

[12] = Quantitative High-Throughput drug screen in 47 multiple myeloma cell lines against the NCATS MIPE library collection: OCIMY1_PLB cell viability assay (AID 1918979); note: nearly all actives have a fitted effect of over 35% in size
Procedure, shortened: as §3

[13] = Quantitative High-Throughput drug screen in 47 multiple myeloma cell lines against the NCATS MIPE library collection: MM1S_ATCC cell viability assay (AID 1918980); note: nearly all actives have a fitted effect of over 45% in size
Procedure, shortened: as §3

[14] = Quantitative High-Throughput drug screen in 47 multiple myeloma cell lines against the NCATS MIPE library collection: MM1R_ATCC cell viability assay (AID 1918981); note: nearly all actives have a fitted effect of over 35% in size
Procedure, shortened: as §3

[15] = Quantitative High-Throughput drug screen in 47 multiple myeloma cell lines against the NCATS MIPE library collection: LP1_DSMZ cell viability assay (AID 1918982); note: nearly all actives have a fitted effect of over 35% in size
Procedure, shortened: as §3

[16] = Quantitative High-Throughput drug screen in 47 multiple myeloma cell lines against the NCATS MIPE library collection: KMS28PE_JCRB cell viability assay (AID 1918983); note: nearly all actives have a fitted effect of over 35% in size
Procedure, shortened: as §3

[17] = Quantitative High-Throughput drug screen in 47 multiple myeloma cell lines against the NCATS MIPE library collection: KMS12PE_JCRB cell viability assay (AID 1918972); settings: KMS12PE myeloma viability, CellTiter-Glo ATP, 48 h; viability: at 45.8 µM (top of the series); note: nearly all actives have a fitted effect of over 30% in size
Procedure, shortened: as §1

[18] = Quantitative High-Throughput drug screen in 47 multiple myeloma cell lines against the NCATS MIPE library collection: NCIH929_DSMZ cell viability assay (AID 1918978); note: nearly all actives have a fitted effect of over 35% in size
Procedure, shortened: as §3

Measured: Potency
Potency is the fitted concentration of half-maximal effect.

O=C(O)CSCC(=O)NC1CCSC1=O (stereo not given)
inconclusive: [1] 0.0093 µM [cytotoxic, full curve, poor fit] | [2] 0.0132 µM [rising, full curve, poor fit] | [7] 0.0047 µM [cytotoxic, full curve, poor fit] | [8] 0.0017 µM [cytotoxic, full curve, poor fit] | [10] 0.0662 µM [rising, full curve] | [14] 0.059 µM [rising, full curve, poor fit]
not listed: [17] | [18]
inactive: all other assays above

Cc1noc(-c2ccc(CSCCC(=O)O)cc2)c1NC(=O)OC(C)c1ccccc1Cl (stereo not given)
inactive: [5] | [6] | [9] | [13] | [14]
inconclusive: [1] 0.105 µM [rising, full curve, poor fit] | [2] 0.0012 µM [rising, full curve, poor fit] | [3] 0.372 µM [rising, full curve, poor fit] | [4] 0.0012 µM [rising, full curve, poor fit] | [17] 18.7 µM [cytotoxic, partial curve, poor fit] | [7] 0.001 µM | [8] 37.2 µM [cytotoxic, single point] | [10] 0.0833 µM [rising, full curve, poor fit] | [12] 0.0047 µM [rising, full curve] | [16] 3.72 µM [rising, partial curve, poor fit]

O=c1[nH]c(=O)n(C2CCCO2)cc1F (stereo not given)
active: [6] 19.1 µM
inconclusive: [2] 0.0021 µM [rising, full curve, poor fit] | [7] 9.59 µM [cytotoxic, full curve, poor fit] | [10] 1.71 µM [cytotoxic, full curve, poor fit] | [11] 13.6 µM [cytotoxic, partial curve, poor fit] | [13] 38.2 µM [cytotoxic, partial curve, poor fit]
not listed: [5] | [12] | [18]
inactive: all other assays above

CC[C@H](NC(C)C)[C@H](O)c1ccc(O)c2[nH]c(=O)ccc12
inactive: [1] | [7] | [9] | [12]
inconclusive: [2] 10.5 µM [cytotoxic, single point] | [3] 0.0132 µM [cytotoxic, full curve, poor fit] | [4] 0.418 µM [cytotoxic, full curve] | [8] 14.8 µM [rising, partial curve] | [11] 0.118 µM [cytotoxic, full curve, poor fit]

COc1ccc2c(Oc3ccc(NC(=O)c4c(C)n(CC(C)(C)O)n(-c5ccccc5)c4=O)nc3)ccnc2c1
inconclusive: [2] 33.2 µM [cytotoxic, single point] | [3] 23.5 µM [cytotoxic, single point] | [4] 29.6 µM [cytotoxic, single point] | [6] 23.5 µM [cytotoxic, partial curve, poor fit] | [17] 16.6 µM [cytotoxic, partial curve] | [7] 0.0332 µM [rising, full curve, poor fit] | [9] 1.18 µM [rising, full curve, poor fit] | [10] 0.0118 µM [rising, full curve] | [11] 0.0105 µM [rising, full curve, poor fit] | [13] 1.05 µM [rising, partial curve, poor fit] | [16] 0.0105 µM [rising, full curve, poor fit]
inactive: [1] | [18] | [12] | [15]

C[C@]12CC[C@@H]3c4ccc(O)cc4C[C@@H](CCCCCCCCCS(=O)CCCC(F)(F)C(F)(F)F)[C@H]3[C@H]1CC[C@H]2O (stereo not given in full)
active: [15] 11.8 µM
inactive: [1] | [2] | [4] | [11]
inconclusive: [3] 18.7 µM [cytotoxic, partial curve, poor fit] | [7] 16.6 µM [cytotoxic, partial curve, poor fit] | [8] 0.0235 µM [cytotoxic, full curve, poor fit] | [14] 20.9 µM [cytotoxic, single point] | [16] 7.43 µM [cytotoxic, partial curve, poor fit]

C=C(C)[C@@H]1CC[C@]2(C)CC[C@]3(C)[C@H](CC[C@@H]4[C@@]5(C)CC[C@H](O)C(C)(C)[C@H]5CC[C@]43C)[C@@H]12
inconclusive: [10] 0.0021 µM [rising, full curve, poor fit] | [12] 0.0209 µM [rising, full curve, poor fit] | [13] 0.0418 µM [rising, full curve, poor fit] | [15] 9.35 µM [rising, partial curve, poor fit]
not listed: [5] | [8] | [16] | [18]
inactive: all other assays above

c1ccc2c(Oc3nc(Nc4ccc(N5CCOCC5)cc4)c4ncn(C5CCCCC5)c4n3)cccc2c1
inconclusive: [1] 13.2 µM [cytotoxic, partial curve, poor fit] | [2] 18.7 µM [cytotoxic, partial curve] | [3] 0.0235 µM [rising, full curve, poor fit] | [4] 18.7 µM [cytotoxic, partial curve, poor fit] | [5] 0.209 µM [cytotoxic, full curve, poor fit] | [17] 7.43 µM [cytotoxic, full curve] | [7] 0.372 µM [cytotoxic, full curve, poor fit] | [18] 33.2 µM [cytotoxic, partial curve, poor fit] | [12] 18.7 µM [cytotoxic, single point] | [14] 20.9 µM [cytotoxic, single point] | [15] 1.32 µM [cytotoxic, partial curve, poor fit]
inactive: [11] | [13]

CC(C)(C#N)c1cc(Cn2cncn2)cc(C(C)(C)C#N)c1
inconclusive: [1] 4.18 µM [cytotoxic, partial curve, poor fit] | [6] 2.35 µM [cytotoxic, partial curve, poor fit] | [8] 8.33 µM [cytotoxic, partial curve, poor fit] | [11] 0.0033 µM [cytotoxic, full curve, poor fit]
inactive: [2] | [4] | [7] | [9] | [13]
active: [3] 2.35 µM

CNc1nc(Nc2ccc(C(=O)N3CCOCC3)cc2OC)ncc1Cl
inconclusive: [1] 0.59 µM [cytotoxic, full curve, poor fit] | [2] 3.72 µM [cytotoxic, full curve, poor fit] | [3] 0.0026 µM [cytotoxic, full curve, poor fit] | [5] 0.0332 µM [cytotoxic, full curve, poor fit] | [7] 4.69 µM [cytotoxic, full curve, poor fit] | [8] 29.6 µM [rising, partial curve, poor fit] | [9] 18.7 µM [cytotoxic, single point] | [11] 0.001 µM [cytotoxic] | [18] 0.001 µM [cytotoxic] | [13] 20.9 µM [cytotoxic, partial curve, poor fit] | [15] 0.118 µM [cytotoxic, full curve, poor fit]
inactive: [4] | [12]

CCC(=O)O[C@]1(C(=O)CO)CC[C@H]2[C@@H]3CCC4=CC(=O)CC[C@]4(C)[C@@H]3CC[C@@]21C
inactive: [3] | [5] | [17] | [12] | [16]
active: [15] 5.26 µM
inconclusive: [1] 0.0019 µM [rising, full curve, poor fit] | [2] 29.6 µM [cytotoxic, single point] | [4] 16.6 µM [cytotoxic, partial curve, poor fit] | [6] 0.0372 µM [rising, full curve, poor fit] | [7] 0.0012 µM [cytotoxic, full curve, poor fit] | [9] 5.9 µM [rising, partial curve, poor fit] | [10] 0.0148 µM [rising, full curve, poor fit] | [13] 26.4 µM [cytotoxic, single point] | [14] 0.0026 µM [cytotoxic, full curve, poor fit]
